In article PMC6265295 one finds binding data, which are given here for one substance.

Chains of the proteins cited; added tags and fusions are not shown. Lines headed by an entry give the natural chain unless they say otherwise; changes in a name come on top.
UniProt Q28645: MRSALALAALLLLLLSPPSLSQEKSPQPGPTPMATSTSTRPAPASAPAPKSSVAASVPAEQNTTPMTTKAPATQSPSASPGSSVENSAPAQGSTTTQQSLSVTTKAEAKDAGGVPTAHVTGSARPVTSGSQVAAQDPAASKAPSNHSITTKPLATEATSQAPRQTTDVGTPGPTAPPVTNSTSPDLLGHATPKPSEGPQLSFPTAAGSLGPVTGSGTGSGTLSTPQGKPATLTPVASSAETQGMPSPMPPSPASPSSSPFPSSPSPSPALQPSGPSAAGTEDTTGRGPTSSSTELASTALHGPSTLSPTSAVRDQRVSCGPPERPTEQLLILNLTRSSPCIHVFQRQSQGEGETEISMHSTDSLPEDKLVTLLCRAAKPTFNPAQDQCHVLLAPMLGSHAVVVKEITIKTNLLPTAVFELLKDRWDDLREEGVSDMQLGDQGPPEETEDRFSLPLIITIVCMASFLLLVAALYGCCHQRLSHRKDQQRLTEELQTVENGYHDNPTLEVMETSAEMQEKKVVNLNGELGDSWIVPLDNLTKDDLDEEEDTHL
UniProt Q15286: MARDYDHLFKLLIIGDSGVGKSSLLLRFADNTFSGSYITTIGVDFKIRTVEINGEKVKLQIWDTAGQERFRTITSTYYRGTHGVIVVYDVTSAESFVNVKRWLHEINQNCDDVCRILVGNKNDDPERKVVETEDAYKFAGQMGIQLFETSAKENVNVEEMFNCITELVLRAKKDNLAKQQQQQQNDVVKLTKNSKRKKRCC

Results are given in words; binding and its absence hold for the method and conditions named. In cells and extracts the contact can be indirect. Binding calls can cover weak binding; strength is not graded here.

This experiment deals with GFP-PODXL^V486A/Y500A (UniProt Q28645). Put plainly: co-IP; GFP-tagged proteins were immunoprecipitated from lysates of transfected H1299 cells (p53-/- or p53R273H) with an anti-GFP antibody conjugated to magnetic beads. Partners were detected by western blotting. Background: A western blot detects proteins with antibodies after separation by electrophoresis.

For “Rab35, endogenous (from UniProt Q15286 1-201)”, the binding entry is given as “binds”.
